These are yes or no findings as the source states them, for the method shown. Binding seen in cells or lysates may run through a third protein. Some results given as binding are weak or reduced against the parent protein; the word gives no strength.
Biological target: T1, CUL4B (endogenous) (human (endogenous in MCF-7, MDA-MB-231, HEK293T)), Q13620
T1 chain: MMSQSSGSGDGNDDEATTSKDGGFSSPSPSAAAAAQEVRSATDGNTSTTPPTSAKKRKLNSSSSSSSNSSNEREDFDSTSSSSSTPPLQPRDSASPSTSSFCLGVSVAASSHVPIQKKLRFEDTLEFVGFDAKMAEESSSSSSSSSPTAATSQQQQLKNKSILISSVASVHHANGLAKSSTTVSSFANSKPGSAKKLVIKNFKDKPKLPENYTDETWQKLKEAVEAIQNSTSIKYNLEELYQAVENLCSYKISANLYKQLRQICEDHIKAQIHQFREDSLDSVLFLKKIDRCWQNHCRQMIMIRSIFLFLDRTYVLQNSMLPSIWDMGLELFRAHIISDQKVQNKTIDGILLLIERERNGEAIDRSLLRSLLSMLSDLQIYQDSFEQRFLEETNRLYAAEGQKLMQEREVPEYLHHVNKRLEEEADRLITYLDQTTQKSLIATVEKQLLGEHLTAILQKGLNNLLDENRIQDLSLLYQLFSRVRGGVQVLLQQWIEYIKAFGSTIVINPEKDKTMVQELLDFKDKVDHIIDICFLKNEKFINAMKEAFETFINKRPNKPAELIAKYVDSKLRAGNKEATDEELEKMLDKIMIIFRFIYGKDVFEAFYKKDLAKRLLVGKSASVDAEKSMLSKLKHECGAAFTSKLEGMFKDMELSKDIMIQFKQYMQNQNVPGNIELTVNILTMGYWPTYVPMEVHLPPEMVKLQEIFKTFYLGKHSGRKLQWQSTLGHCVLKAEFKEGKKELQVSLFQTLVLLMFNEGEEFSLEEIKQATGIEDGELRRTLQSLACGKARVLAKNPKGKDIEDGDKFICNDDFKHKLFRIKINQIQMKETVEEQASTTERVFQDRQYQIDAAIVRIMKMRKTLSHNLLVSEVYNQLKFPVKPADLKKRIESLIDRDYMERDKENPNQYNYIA
Assay: co-IP; endogenous proteins, MDA-MB-231 cells; IP with anti-CUL4B, immunoblot
Conditions: remark: other sources report otherwise

binding: binds
B1: ZEB1 (endogenous), P37275 1-1124 (protein)
chain: MADGPRCKRRKQANPRRNNVTNYNTVVETNSDSDDEDKLHIVEEESVTDAADCEGVPEDDLPTDQTVLPGRSSEREGNAKNCWEDDRKEGQEILGPEAQADEAGCTVKDDECESDAENEQNHDPNVEEFLQQQDTAVIFPEAPEEDQRQGTPEASGHDENGTPDAFSQLLTCPYCDRGYKRFTSLKEHIKYRHEKNEDNFSCSLCSYTFAYRTQLERHMTSHKSGRDQRHVTQSGCNRKFKCTECGKAFKYKHHLKEHLRIHSGEKPYECPNCKKRFSHSGSYSSHISSKKCISLIPVNGRPRTGLKTSQCSSPSLSASPGSPTRPQIRQKIENKPLQEQLSVNQIKTEPVDYEFKPIVVASGINCSTPLQNGVFTGGGPLQATSSPQGMVQAVVLPTVGLVSPISINLSDIQNVLKVAVDGNVIRQVLENNQANLASKEQETINASPIQQGGHSVISAISLPLVDQDGTTKIIINYSLEQPSQLQVVPQNLKKENPVATNSCKSEKLPEDLTVKSEKDKSFEGGVNDSTCLLCDDCPGDINALPELKHYDLKQPTQPPPLPAAEAEKPESSVSSATGDGNLSPSQPPLKNLLSLLKAYYALNAQPSAEELSKIADSVNLPLDVVKKWFEKMQAGQISVQSSEPSSPEPGKVNIPAKNNDQPQSANANEPQDSTVNLQSPLKMTNSPVLPVGSTTNGSRSSTPSPSPLNLSSSRNTQGYLYTAEGAQEEPQVEPLDLSLPKQQGELLERSTITSVYQNSVYSVQEEPLNLSCAKKEPQKDSCVTDSEPVVNVIPPSANPINIAIPTVTAQLPTIVAIADQNSVPCLRALAANKQTILIPQVAYTYSTTVSPAVQEPPLKVIQPNGNQDERQDTSSEGVSNVEDQNDSDSTPPKKKMRKTENGMYACDLCDKIFQKSSSLLRHKYEHTGKRPHECGICKKAFKHKHHLIEHMRLHSGEKPYQCDKCGKRFSHSGSYSQHMNHRYSYCKREAEERDSTEQEEAGPEILSNEHVGARASPSQGDSDERESLTREEDEDSEKEEEEEDKEMEELQEEKECEKPQGDEEEEEEEEEVEEEEVEEAENEGEEAKTEGLMKDDRAESQASSLGQKVGESSEQVSEEKTNEA

— publication PMC8132058
